Measured values published in paper doi:10.1101/2025.05.21.655143.

Chains of the proteins cited; added tags and fusions are not shown.
UniProt Q62093: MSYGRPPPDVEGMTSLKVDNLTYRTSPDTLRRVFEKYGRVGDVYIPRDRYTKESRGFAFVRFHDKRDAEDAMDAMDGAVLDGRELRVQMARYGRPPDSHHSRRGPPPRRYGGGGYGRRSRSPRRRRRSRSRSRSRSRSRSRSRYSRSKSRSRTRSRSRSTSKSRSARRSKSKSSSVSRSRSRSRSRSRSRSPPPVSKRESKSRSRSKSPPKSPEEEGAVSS
UniProt P26369: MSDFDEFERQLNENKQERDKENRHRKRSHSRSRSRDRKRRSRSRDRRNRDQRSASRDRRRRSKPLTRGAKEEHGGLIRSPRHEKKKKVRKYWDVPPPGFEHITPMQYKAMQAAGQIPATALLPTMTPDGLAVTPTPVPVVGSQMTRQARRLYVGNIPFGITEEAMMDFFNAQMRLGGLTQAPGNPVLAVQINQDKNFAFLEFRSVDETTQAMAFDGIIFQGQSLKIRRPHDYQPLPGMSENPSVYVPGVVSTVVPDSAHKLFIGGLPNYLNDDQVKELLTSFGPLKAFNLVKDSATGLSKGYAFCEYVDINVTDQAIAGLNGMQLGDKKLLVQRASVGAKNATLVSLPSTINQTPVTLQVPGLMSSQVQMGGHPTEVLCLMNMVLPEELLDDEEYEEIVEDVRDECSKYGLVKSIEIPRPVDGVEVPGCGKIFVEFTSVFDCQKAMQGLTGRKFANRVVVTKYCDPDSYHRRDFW
UniProt Q6PDM2: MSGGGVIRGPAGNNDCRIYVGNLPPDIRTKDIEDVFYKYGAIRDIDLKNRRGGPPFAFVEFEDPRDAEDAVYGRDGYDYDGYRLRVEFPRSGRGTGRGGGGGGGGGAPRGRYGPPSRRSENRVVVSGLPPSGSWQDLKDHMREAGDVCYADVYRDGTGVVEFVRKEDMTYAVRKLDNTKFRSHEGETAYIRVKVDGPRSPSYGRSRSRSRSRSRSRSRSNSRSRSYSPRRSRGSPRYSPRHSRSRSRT

What was measured:
Assay in all cases: affinity purification with mass spectrometry
Halo-SPEN-V5 (mouse) = Halo-SPEN-V5 (mouse) (UniProt Q62504)
[1] = biological target: T1, Halo-SPEN-V5 RRM1-4 (mouse) (UniProt Q62504)
T1 sequence: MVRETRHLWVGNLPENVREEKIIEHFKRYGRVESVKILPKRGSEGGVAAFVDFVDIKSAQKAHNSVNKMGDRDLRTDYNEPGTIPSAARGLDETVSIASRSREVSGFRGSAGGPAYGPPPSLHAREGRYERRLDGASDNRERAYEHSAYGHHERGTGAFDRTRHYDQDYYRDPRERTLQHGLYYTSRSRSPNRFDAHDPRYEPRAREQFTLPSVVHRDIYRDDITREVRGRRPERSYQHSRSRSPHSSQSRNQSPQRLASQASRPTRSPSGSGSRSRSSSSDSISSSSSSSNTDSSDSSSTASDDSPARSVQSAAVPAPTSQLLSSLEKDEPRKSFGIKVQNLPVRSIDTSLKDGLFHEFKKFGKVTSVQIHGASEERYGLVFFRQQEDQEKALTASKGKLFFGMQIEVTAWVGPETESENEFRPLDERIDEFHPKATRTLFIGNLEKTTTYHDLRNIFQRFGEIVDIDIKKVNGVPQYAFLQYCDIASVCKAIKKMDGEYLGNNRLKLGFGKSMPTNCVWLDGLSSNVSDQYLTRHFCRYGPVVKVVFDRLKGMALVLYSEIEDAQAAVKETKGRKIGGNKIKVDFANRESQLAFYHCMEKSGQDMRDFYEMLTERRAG

[2] = biological target: T1, Halo-SPEN-V5 RRM1-4 (mouse); remark: listed apart in the source

Molecule	binding (Halo-SPEN-V5 (mouse))	binding [1]	binding [2]
SRSF2 (from UniProt Q62093 1-221)	–	binds	–
U2AF2 (from UniProt P26369 1-475)	–	binds	–
RBM15 (protein, UniProt Q0VBL3 1-962) MRSAGREPLPRRSPRWRRASPLCETSAGWRVSQLRRDDLRRPSTMKGKERSPVKPKRSRGGEDSSSRGERSKKLGGSGGSNGSSSGKTDSGGSRRSLHLDKSSSRGGSREYETGGGSSSSRLHSYSSPSTKNSSGGGESRSSSRGGGGESRSSGAASSAPGGGDGVEYKTLKISELGSQLSDEAVEDGLFHEFKRFGDVSVKISHLSGSGSGDERVAFVNFRRPEDARAAKHARGRLVLYDRPLKIEAVYVSRRRSRSPLDKDAYAPSSSVVGTSVGSHRHAPGGGGGQRSLSPGGAALGYRDYRLQQLALGRLPPPPPPPLPRELERERDYPFYDRVRPAYSLEPRVGAGAGAAPFREVDEISPEDDQRANRTLFLGNLDITVTENDLRRAFDRFGVITEVDIKRPSRGQTSTYGFLKFENLDMSHRAKLAMSGKIIIRNPIKIGYGKATPTTRLWVGGLGPWVPLAALAREFDRFGTIRTIDYRKGDSWAYIQYESLDAAHAAWTHMRGFPLGGPDRRLRVDFADTEHRYQQQYLQPLPLTHYELVTDTFGHRAPDPLRSARDRTPPLLYRDRDRDLYTDSDWVPPPPPVRERSARAATSAVTAYEPLDSLDRRRDGWSLDRDRGDRDLPSSRDQPRKRRLPEESGGRHLDRSPESERPRKQRHCTPSPDRSPELSSNRDRYNSDNDRSSRLLLLERSSPVRDRRGSLEKSQSDKRDRKNSASAERDRKHRTAAPTEGKNPLKKEDRSDGNAPSASTSSSKQKPPSQKQDGGTAPVAASSPKLCLAWQGMLLLKNSNFPSNMHLLQGDLQVASSLLVEGSTGGKVAQLKITQRLRLDQPKLDEVTRRIKVAGPNGYAILLAVPGSSDSRSSSSSATSDTAASTQRPLRNLVSYLKQKQAAGVISLPVGGNKDKENTGVLHAFPPCEFSQQFLDSPAKALAKSEEDYLVMIIVRAKLVNSG	–	–	binds

The remaining lines, values ahead:

binding (Halo-SPEN-V5 (mouse))	binding [1]	binding [2]	Molecule
binds	binds	–	SRSF1 (from UniProt Q6PDM2 1-248)
–	–	binds	U2AF1 (protein, UniProt Q9D883 1-239) MAEYLASIFGTEKDKVNCSFYFKIGACRHGDRCSRLHNKPTFSQTIALLNIYRNPQNSSQSADGLRCAVSDVEMQEHYDEFFEEVFTEMEEKYGEVEEMNVCDNLGDHLVGNVYVKFRREEDAEKAVIDLNNRWFNGQPIHAELSPVTDFREACCRQYEMGECTRGGFCNFMHLKPISRELRRELYGRRRKKHRSRSRSRERRSRSRDRGRGGGGGGGGGGGRERDRRRSRDRERSGRF

Where two headings read alike, the source gives them in different places. These are yes or no findings as the source states them, for the method shown. In cells and extracts the contact can be indirect. A yes stands for co-enrichment or nearness to the bait. Other partners may have been found. For part of these data: Sequences can lack the tags named with a protein.
